Laboratory results reported in the supplement of paper PMC12819154, “High-throughput peptide-centric local stability assay extends protein–ligand identification to membrane proteins, tissues and bacteria” (Nature Structural & Molecular Biology, 2025).
The other results are listed elsewhere or left out. Most entries show no effect beyond the scatter of the controls.

The chains behind the UniProt entries cited, without tags or fusion partners. Where a name states a change or a piece, a line headed by the entry shows the natural chain unless it says otherwise.
UniProt P48147: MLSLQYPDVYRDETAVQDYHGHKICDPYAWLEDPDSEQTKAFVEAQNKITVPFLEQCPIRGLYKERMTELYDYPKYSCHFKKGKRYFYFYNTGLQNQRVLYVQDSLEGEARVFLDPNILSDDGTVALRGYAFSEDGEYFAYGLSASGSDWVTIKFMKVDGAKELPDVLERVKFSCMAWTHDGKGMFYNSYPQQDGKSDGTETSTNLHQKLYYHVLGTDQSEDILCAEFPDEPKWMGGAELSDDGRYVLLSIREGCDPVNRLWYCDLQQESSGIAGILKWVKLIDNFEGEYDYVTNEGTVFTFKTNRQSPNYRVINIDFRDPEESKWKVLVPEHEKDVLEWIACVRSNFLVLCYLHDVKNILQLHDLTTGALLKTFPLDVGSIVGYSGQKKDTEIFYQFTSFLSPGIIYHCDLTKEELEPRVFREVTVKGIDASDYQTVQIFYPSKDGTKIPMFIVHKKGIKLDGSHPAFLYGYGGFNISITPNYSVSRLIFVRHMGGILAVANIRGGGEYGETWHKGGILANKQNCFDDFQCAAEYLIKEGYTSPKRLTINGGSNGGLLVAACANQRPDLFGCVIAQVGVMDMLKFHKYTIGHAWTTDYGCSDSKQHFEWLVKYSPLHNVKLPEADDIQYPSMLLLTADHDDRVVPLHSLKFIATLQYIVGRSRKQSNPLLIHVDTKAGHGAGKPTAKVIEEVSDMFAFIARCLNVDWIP
UniProt P52732: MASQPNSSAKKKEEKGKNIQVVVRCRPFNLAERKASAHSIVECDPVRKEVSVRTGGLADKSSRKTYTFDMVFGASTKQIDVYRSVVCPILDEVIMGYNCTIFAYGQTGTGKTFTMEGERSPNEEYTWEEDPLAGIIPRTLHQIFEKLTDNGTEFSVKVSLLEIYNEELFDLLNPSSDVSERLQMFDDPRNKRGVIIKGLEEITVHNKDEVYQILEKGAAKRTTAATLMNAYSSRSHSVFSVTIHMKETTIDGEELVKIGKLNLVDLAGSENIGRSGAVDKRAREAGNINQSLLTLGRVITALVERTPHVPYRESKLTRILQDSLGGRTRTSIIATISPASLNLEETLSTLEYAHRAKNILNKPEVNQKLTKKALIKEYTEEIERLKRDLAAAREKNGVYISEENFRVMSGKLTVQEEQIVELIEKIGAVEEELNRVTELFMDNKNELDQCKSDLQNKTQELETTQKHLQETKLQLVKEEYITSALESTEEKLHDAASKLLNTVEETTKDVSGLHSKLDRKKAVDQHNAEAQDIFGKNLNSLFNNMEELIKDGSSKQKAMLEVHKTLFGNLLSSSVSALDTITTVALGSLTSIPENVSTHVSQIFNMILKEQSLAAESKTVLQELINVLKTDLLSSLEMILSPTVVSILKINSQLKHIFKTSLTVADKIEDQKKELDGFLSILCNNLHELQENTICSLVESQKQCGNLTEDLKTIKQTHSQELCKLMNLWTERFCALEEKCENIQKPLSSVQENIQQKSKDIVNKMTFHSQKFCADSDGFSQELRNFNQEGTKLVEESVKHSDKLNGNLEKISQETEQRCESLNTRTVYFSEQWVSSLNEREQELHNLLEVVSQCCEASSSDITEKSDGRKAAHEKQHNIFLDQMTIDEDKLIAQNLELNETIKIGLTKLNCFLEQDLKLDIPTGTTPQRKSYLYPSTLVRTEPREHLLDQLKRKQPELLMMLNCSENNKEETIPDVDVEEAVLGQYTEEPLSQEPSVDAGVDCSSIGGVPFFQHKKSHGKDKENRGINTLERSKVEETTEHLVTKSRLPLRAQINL
UniProt P53602: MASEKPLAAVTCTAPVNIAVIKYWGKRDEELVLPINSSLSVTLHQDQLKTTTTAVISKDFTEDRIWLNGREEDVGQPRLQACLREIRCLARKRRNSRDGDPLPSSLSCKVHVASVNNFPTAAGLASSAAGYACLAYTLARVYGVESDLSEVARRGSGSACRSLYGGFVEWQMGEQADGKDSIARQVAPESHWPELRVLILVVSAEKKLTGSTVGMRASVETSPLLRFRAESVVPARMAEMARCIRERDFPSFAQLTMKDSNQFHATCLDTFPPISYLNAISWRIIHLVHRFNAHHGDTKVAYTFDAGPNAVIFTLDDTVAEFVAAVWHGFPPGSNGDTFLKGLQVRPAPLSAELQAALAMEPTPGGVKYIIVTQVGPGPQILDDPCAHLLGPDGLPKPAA
UniProt P51911: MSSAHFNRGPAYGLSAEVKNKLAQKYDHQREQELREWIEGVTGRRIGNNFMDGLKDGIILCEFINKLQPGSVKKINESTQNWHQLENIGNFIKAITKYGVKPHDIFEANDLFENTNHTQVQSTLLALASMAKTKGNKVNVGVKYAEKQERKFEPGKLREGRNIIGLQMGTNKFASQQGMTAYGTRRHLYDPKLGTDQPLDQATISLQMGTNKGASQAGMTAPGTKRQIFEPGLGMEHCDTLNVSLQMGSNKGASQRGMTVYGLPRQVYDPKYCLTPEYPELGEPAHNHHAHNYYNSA
UniProt P48729: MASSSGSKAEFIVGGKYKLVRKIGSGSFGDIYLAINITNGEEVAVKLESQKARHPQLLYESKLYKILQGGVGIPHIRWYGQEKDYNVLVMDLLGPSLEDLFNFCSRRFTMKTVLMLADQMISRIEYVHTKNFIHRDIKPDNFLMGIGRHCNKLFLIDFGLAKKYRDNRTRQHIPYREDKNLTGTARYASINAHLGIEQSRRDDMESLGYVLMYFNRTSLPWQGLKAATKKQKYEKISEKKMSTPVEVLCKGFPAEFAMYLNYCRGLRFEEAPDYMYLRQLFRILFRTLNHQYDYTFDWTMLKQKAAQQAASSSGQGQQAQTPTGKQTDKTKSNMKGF
UniProt P49368: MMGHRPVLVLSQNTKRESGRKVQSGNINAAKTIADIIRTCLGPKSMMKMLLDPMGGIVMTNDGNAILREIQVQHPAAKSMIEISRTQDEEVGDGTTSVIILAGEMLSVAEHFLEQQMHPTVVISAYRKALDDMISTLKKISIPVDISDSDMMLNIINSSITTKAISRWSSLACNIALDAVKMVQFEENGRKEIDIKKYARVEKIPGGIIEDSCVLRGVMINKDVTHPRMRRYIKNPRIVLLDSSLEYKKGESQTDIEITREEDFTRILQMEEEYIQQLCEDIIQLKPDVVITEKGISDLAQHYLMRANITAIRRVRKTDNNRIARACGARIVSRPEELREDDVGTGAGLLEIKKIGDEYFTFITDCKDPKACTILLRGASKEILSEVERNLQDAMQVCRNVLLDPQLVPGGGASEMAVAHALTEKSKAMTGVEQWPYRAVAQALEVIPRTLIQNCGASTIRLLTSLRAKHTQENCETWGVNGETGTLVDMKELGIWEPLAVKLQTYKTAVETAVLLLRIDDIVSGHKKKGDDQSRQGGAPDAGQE
UniProt P49790, whole entry: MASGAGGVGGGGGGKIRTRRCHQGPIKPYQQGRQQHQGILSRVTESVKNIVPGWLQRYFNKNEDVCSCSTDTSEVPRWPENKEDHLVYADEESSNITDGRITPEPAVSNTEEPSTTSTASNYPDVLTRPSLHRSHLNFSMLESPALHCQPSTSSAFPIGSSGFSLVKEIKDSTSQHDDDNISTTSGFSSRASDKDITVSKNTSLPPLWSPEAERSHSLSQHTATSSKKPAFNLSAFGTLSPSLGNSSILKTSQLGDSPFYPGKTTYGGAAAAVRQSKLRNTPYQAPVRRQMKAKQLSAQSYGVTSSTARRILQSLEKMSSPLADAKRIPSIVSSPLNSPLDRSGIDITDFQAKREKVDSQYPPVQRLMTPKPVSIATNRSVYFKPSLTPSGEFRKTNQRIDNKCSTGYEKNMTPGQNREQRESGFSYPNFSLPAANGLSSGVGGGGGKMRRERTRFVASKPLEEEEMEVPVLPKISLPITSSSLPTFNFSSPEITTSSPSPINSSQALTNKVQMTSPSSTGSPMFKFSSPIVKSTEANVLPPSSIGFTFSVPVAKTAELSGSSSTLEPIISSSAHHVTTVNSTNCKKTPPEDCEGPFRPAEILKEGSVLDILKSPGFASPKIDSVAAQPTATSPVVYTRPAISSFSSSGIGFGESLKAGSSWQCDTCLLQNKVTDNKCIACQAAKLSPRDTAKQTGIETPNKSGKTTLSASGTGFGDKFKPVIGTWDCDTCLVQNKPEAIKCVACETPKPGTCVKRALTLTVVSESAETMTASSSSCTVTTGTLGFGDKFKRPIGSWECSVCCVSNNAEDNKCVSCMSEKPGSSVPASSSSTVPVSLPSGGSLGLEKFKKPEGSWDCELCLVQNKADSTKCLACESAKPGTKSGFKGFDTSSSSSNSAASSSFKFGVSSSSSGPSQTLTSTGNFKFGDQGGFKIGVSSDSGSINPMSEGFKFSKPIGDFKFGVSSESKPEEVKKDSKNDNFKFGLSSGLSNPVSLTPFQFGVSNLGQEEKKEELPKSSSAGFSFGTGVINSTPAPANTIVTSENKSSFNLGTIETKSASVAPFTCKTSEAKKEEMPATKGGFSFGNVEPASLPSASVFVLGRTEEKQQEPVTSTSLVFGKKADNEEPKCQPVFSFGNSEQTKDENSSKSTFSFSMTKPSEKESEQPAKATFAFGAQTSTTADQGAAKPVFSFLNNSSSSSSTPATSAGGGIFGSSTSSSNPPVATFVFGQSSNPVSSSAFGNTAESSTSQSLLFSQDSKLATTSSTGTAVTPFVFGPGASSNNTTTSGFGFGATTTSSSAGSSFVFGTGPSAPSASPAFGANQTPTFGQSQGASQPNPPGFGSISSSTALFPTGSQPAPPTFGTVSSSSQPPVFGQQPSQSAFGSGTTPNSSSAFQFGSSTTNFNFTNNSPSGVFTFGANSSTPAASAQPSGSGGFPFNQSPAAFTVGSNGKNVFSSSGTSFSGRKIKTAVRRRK
UniProt P49916: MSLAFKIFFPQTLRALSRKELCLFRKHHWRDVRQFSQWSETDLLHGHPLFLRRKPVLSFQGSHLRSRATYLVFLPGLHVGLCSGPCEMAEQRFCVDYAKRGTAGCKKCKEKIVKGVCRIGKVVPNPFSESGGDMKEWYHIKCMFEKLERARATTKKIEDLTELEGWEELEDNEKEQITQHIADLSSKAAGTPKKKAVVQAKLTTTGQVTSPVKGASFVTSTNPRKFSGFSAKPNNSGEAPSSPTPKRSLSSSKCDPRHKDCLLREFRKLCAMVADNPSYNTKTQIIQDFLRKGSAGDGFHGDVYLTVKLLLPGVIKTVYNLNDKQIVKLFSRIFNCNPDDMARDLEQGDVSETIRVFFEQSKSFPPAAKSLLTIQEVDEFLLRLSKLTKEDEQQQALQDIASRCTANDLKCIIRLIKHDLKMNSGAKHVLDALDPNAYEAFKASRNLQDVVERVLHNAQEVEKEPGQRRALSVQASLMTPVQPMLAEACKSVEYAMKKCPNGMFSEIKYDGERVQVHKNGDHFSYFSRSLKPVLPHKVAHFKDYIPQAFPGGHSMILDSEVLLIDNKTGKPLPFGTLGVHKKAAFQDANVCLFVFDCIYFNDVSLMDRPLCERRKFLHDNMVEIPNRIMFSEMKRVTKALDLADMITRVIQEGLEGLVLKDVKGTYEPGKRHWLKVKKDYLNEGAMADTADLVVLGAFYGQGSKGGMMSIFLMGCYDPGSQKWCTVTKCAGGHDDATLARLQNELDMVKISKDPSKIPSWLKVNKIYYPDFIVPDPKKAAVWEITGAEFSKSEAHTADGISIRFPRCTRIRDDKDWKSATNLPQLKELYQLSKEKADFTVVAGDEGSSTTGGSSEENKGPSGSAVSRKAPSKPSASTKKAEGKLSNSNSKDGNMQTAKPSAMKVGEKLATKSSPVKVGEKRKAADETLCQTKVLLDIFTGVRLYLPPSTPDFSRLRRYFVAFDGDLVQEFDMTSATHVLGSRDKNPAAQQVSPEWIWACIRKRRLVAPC
UniProt P49675, whole entry: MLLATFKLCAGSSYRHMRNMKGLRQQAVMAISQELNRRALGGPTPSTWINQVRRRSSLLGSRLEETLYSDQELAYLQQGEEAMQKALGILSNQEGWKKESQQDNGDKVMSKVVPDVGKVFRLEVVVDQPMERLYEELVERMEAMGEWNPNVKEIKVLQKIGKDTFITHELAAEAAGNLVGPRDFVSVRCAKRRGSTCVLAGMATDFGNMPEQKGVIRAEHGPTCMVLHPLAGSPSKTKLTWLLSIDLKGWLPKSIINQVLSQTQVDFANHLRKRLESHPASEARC
UniProt P52209: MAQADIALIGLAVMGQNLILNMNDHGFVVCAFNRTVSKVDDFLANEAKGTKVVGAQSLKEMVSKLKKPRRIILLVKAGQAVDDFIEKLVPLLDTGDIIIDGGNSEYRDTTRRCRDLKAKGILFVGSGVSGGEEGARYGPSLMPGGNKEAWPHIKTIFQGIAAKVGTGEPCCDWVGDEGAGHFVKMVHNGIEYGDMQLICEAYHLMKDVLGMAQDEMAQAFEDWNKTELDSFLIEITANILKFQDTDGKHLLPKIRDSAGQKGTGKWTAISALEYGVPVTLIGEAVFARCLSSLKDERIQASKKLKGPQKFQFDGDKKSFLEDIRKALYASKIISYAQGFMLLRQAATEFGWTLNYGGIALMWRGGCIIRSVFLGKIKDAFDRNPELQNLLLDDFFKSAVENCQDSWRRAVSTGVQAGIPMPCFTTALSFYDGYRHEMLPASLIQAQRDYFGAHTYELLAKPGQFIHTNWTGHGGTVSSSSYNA

Compound: Cc1nc(Nc2ncc(C(=O)Nc3c(C)cccc3Cl)s2)cc(N2CCN(CCO)CC2)n1 [dasatinib]
Assay: log2 fold change of tryptic peptide abundance, ligand vs vehicle (limited proteolysis) (log2 ratio); higher = more trypsin-susceptible (destabilized)
Conditions: ligand concentration: 5 uM; sample: K562 cleared lysate

| Target | log2 fold change |
| --- | --- |
| RAP1GDS1 (peptide sequence: LMDLLDR, peptide start residue: 362) (UniProt P52306) | -0.262 |
| SMS (peptide sequence: MKELSQDSTGR, peptide start residue: 97) (UniProt P52788) | 0.197 |
| SUOX (peptide sequence: GVLSNAWHR, peptide start residue: 530) (UniProt P51687) | 0.33 |
| RANGAP1 (peptide sequence: SSACFTLQELK, peptide start residue: 138) (UniProt P46060) | -0.145 |
| RAB13 (peptide sequence: RSGNGNKPPSTDLK, peptide start residue: 177) (UniProt P51153) | 0.477 |
| RPL5 (peptide sequence: YLMEEDEDAYKKQFSQYIK, peptide start residue: 210) (UniProt P46777) | 0.303 |
| UniProt P51523 (peptide sequence: THTGEKPHGCIQCGK, peptide start residue: 424) | -1.2 |
| PREP (peptide sequence: VVPLHSLK, peptide start residue: 644) (UniProt P48147) | -0.185 |
| KIF11 (peptide sequence: ASAHSIVECDPVR, peptide start residue: 35) (UniProt P52732) | 0.251 |
| ATRX (peptide sequence: NSSDSAIDNPKPNKLPK, peptide start residue: 702) (UniProt P46100) | 0.427 |
| MVD (peptide sequence: IIHLVHR, peptide start residue: 284) (UniProt P53602) | 0.385 |
| RAB5C (peptide sequence: GVDLQENNPASR, peptide start residue: 199) (UniProt P51148) | 0.0462 |
| UniProt P48201 (peptide sequence: LACTPSLIR, peptide start residue: 7) | -0.22 |
| FNTB (peptide sequence: FNHLVPR, peptide start residue: 64) (UniProt P49356) | 0.141 |
| UniProt P49450 (peptide sequence: IRGLEEGLG, peptide start residue: 132) | 0.158 |
| CNN1 (peptide sequence: GPAYGLSAEVK, peptide start residue: 9) (UniProt P51911) | -0.0923 |
| UniProt P46734 (peptide sequence: DVKPSNVLINK, peptide start residue: 190) | 0.0888 |
| BCAP31 (peptide sequence: LQAAVDGPMDKKEE, peptide start residue: 233) (UniProt P51572) | -0.297 |
| UniProt P48729 (peptide sequence: TSLPWQGLK, peptide start residue: 217) | 0.276 |
| NUP98 (peptide sequence: ETFLTQK, peptide start residue: 1602) (UniProt P52948) | -0.49 |
| PTDSS1 (peptide sequence: TLSKDDVNYK, peptide start residue: 9) (UniProt P48651) | 0.299 |
| CCT3 (peptide sequence: AVAQALEVIPR, peptide start residue: 439) (UniProt P49368) | -0.131 |
| NUP153 (peptide sequence: VTDNKCIACQAAK, peptide start residue: 673) (UniProt P49790) | 0.682 |
| LIG3 (peptide sequence: VLHNAQEVEKEPGQR, peptide start residue: 454) (UniProt P49916) | -0.599 |
| STAR (peptide sequence: LYEELVER, peptide start residue: 133) (UniProt P49675) | -0.0848 |
| PPT1 (peptide sequence: TLNAGAYSK, peptide start residue: 166) (UniProt P50897) | 0.0715 |
| PGD (peptide sequence: EAWPHIK, peptide start residue: 148) (UniProt P52209) | -0.106 |
| CLTCL1 (peptide sequence: VVGAMQLYSVDR, peptide start residue: 177) (UniProt P53675) | -0.481 |
| TSC2 (peptide sequence: KFEEHAVEALWK, peptide start residue: 72) (UniProt P49815) | 0.747 |

At a glance, part of the list above.

| Target | log2 fold change |
| --- | --- |
| ATRX (peptide sequence: NSSDSAIDNPKPNKLPK, peptide start residue: 702) (UniProt P46100) | 0.427 |
| MVD (peptide sequence: IIHLVHR, peptide start residue: 284) (UniProt P53602) | 0.385 |
